{
  "sequences": {"note": "Chains of the proteins cited; added tags and fusions are not shown.", "UniProt Q92918, whole entry": "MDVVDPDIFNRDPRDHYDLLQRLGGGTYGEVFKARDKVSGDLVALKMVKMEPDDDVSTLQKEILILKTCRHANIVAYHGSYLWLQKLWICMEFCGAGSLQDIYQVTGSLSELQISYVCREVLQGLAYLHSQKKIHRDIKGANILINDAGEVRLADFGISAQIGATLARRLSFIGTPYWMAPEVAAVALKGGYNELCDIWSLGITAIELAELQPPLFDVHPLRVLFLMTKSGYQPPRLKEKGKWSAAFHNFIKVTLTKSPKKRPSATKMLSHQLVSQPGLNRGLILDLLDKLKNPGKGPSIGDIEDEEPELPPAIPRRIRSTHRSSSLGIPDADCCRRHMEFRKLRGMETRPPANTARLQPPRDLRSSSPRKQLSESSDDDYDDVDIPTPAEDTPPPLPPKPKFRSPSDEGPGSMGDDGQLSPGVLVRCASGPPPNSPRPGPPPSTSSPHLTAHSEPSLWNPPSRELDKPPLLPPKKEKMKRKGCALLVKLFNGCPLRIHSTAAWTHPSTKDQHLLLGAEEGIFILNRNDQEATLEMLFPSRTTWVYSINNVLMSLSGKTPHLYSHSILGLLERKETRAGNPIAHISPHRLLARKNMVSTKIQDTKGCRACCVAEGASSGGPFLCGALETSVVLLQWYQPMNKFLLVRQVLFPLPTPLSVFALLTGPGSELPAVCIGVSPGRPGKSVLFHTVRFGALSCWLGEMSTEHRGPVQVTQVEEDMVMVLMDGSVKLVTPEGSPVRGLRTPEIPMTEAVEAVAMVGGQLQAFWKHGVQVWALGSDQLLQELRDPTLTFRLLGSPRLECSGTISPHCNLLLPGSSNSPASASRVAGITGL"},
  "source": "patent US12466841B2",
  "about": "“Substituted pyrrolo[3,4-c]pyridines as HPK1 antagonists” (Nimbus Saturn, Inc., priority 2021, dated 2025)",
  "molecular_target": "HPK1 (Homo sapiens (Human), UniProt Q92918)",
  "assay": "HPK1 biochemical enzyme assay (microfluidic mobility shift)",
  "conditions": "read-out: HPK1 1000UMATP caliper IC50; 1.5 nM HPK1, ATP 1 mM final, 60 min at RT, Caliper EZ Reader",
  "protocol": "HPK1 biochemical enzyme assay: HPK1 enzyme inhibition was measured using a microfluidic mobility shift assay. Reactions were performed in a 384-well plate, containing 1.5 nM HPK1 (Invitrogen), in assay buffer (Cana Biosciences; pH 7.4). Test compounds were titrated in ten point curves (top final assay concentration 3 μM), and preincubated with enzyme/substrate mix for 30 min prior to initiation of the reaction by addition of ATP (1 mM final concentration) and substrate (1 μM final concentration; Carna Biosciences) diluted in assay buffer supplemented by MgCl2 (final assay concentration of 5 mM). Following 60 min incubation at RT, the reaction was terminated by addition of 60 μl/well termination buffer (Carna Biosciences) and signal determination using a Caliper EZ Reader (Perkin Elmer, UK).\nCompounds having an activity designated as “A” provided an IC50≤100 nM; compounds having an activity designated as “B” provided an IC50>100 nM.",
  "note": "Structures were worked out from names or drawings and are uncertain.",
  "data": [
    {"smiles": "CC(C)(O)[C@@H]1CCCN(c2ccc(Nc3ncc(-c4cnc5cc(F)ccn45)c4c3C(=O)NC4)cc2)C1", "note": "(single isomer, unassigned) [Compound I-4]", "values": [
      {"measurement": "IC50", "value": "< 100", "unit": "nM"}
    ]}
  ]
}
